Literature values, collected in patent US20170037125A1, “COMBINATION OF A PD-1 ANTAGONIST AND AN IDO1 INHIBITOR FOR TREATING CANCER” (INCYTE CORPORATION, priority 2014, published 2017).
Some entries share one result that the patent states for a list of compounds.

Protein sequences, listed by entry. Tags and fused reporters are not part of them.
UniProt P14902, whole entry: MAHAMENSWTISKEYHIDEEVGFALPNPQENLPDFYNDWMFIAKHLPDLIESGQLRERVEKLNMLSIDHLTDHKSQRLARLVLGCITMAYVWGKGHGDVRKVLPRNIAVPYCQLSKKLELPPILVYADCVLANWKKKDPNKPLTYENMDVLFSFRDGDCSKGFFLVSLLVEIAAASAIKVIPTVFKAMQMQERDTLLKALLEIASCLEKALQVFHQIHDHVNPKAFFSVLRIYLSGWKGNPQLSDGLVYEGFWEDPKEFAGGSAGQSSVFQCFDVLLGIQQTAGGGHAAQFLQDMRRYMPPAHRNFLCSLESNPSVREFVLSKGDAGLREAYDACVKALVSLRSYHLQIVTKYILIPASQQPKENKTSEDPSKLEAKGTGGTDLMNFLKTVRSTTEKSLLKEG

target: human indoleamine 2,3-dioxygenasae (IDO) (Homo sapiens, UniProt P14902); conditions: human IDO enzyme assay; see U.S. Pat. No. 8,088,803; cited from earlier work

Row | Compound | IC50 [nM]
1 | NS(=O)(=O)NCCNc1nonc1C(=NO)Nc1cccc(C(F)(F)F)c1 [Compound 4, 4-({2-[(aminosulfonyl)amino]ethyl}amino)-N′-hydroxy-N-[3-(trifluoromethyl)phenyl]-1,2,5-oxadiazole-3-carboximidamide] | < 500
2 | N#Cc1cc(NC(=NO)c2nonc2NCCNS(N)(=O)=O)ccc1F [Compound 5, 4-({2-[(aminosulfonyl)amino]ethyl}amino)-N-(3-cyano-4-fluorophenyl)-N′-hydroxy-1,2,5-oxadiazole-3-carboximidamide] | < 750
3 | NS(=O)(=O)NCCNc1nonc1C(=NO)NCc1cc(Br)co1 [Compound 6, 4-({2-[(aminosulfonyl)amino]ethyl}amino)-N-[(4-bromo-2-furyl)methyl]-N′-hydroxy-1,2,5-oxadiazole-3-carboximidamide] | < 500
4 | NS(=O)(=O)NCCNc1nonc1C(=NO)NCc1cc(Cl)co1 [Compound 7, 4-({2-[(aminosulfonyl)amino]ethyl}amino)-N-[(4-chloro-2-furyl)methyl]-N′-hydroxy-1,2,5-oxadiazole-3-carboximidamide] | < 750
